The test concerns the target Cysteine‐rich secretory protein 2 (pig (endogenous in boar spermatozoa)). As to the kind of experiment: affinity purification with mass spectrometry + native gel or EMSA; anti-CRISP2 cross-linked to protein A/G magnetic beads, incubated with ~0.5 mg boar sperm lysate (NC, CAP, II) overnight at 4°C, eluate by LC-MS/MS; and the CRISP2-immunoreactive ~150 kDa band excised from blue native PAGE by LC-MS/MS; proteins common to both lists. (A gel shift assay detects complexes by their altered migration in electrophoresis.)

No constants are given. Whether binding was seen depends on the method and setting. In cells and extracts the contact can be indirect. These calls come from enrichment with a bait or labelling near it, and not all partners need be listed.

B1: Acrosin (ACR) (protein, UniProt P08001 17-415)
chain: RDNATCDGPCGLRFRQKLESGMRVVGGMSAEPGAWPWMVSLQIFMYHNNRRYHTCGGILLNSHWVLTAAHCFKNKKKVTDWRLIFGANEVVWGSNKPVKPPLQERFVEEIIIHEKYVSGLEINDIALIKITPPVPCGPFIGPGCLPQFKAGPPRAPQTCWVTGWGYLKEKGPRTSPTLQEARVALIDLELCNSTRWYNGRIRSTNVCAGYPRGKIDTCQGDSGGPLMCRDRAENTFVVVGITSWGVGCARAKRPGVYTSTWPYLNWIASKIGSNALQMVQLGTPPRPSTPAPPVRPPSVQTPVRPPWYFQRPPGPSQQPGSRPRPPAPPPAPPPPPPPPPPPPPPPPPPPQQVSAKPPQALSFAKRLQQLIEALKGTAFSSGRSYYETETTDLQELPAS
Consider B1, for which the binding result is “binds”.

B2: Acrosin binding protein, 60 kDa form (ACRBP) (protein, UniProt Q29016 26-539)
chain: QDANSASTPGSPLSPTEYERFFALLTPTWKAETTCRLRATHGCRNPTLVQLDQYENHGLVPDGAVCSDLPYASWFESFCQFTQYRCSNHVYYAKRVRCSQPVSILSPNSLKEVDTSSEVPITTMTSPVSSHITATGRQVFQPWPERLNNNVEELLQSSLSLGGQEQGQEHKQEHKQEQGQEHKQDEGQEQEEQEEEQEEEGKQEEGQGTEESLEAMSGLQADSEPKFQSEFVSSNPFSFTPRVREVESTPMMMENIQELIRSAQEMDEMGDVYEEENIWRAQSPGSLLQLPHVDALLVLCYSIVENTCVITPTAKAWQYLEDETLGFGKSVCDSLGRRHLAACSLCDFCSLKLEQCHSETNLQRQQCDNSHKTPFISPLLASQSMSIGTQIGTLKSGRFYGLDLYGGLRMDFWCARLATKGCEDNRVASWLQTEFLSFQDGDFPTKICDTEYVQYPNYCAFKSQQCMMRNRDRKVSRMRCLQNETYTVLTQAKSEDLVLRWSQEFSTLTLGQAG
As for B2, the binding result is “binds”.

B3: Sperm‐associated acrosin inhibitor (AI) (protein, UniProt P26461 27-97)
chain: ARSKKTRKEPDCDVYRSHLFFCTREMDPICGTNGKSYANPCIFCSEKLGRNEKFDFGHWGHCREYTSAARS
For B3, the binding entry was “binds”.
